Where no end group is shown, it is not given here.
Assay: general procedure: peptide synthesis; CTL resin
Details: whole synthesis

Sequence: NMSKHTTFFGA
- crude mass: 0.85 g
- crude yield (scale of the general procedure 700 mg resin): 89.9%

— US9550078B2 (CAREGEN CO., LTD., priority 2011, dated 2017)
